Experimental data published in the supplement of paper PMC12823440, “Inhibitors supercharge kinase turnover through native proteolytic circuits” (Nature, 2025).
Where a name gives a salt, the structure may show the parent alone. This is one part of the list. The calls rarely recur for the same compound in another form.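 Kinases, fused to nanoluciferase, were expressed in K562 cells; luminescence was measured every 4 h from 2 to 18 h as percent of control (DMSO = 100%, positive control = 0%). A time point is decreased if signal falls significantly (2 sigma). Hits were called by the authors by a rule that is not shown; the count of time points alone does not decide it.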

Chains of the proteins cited; added tags and fusions are not shown. Lines headed by an entry give the natural chain unless they say otherwise; changes in a name come on top.
UniProt O75460: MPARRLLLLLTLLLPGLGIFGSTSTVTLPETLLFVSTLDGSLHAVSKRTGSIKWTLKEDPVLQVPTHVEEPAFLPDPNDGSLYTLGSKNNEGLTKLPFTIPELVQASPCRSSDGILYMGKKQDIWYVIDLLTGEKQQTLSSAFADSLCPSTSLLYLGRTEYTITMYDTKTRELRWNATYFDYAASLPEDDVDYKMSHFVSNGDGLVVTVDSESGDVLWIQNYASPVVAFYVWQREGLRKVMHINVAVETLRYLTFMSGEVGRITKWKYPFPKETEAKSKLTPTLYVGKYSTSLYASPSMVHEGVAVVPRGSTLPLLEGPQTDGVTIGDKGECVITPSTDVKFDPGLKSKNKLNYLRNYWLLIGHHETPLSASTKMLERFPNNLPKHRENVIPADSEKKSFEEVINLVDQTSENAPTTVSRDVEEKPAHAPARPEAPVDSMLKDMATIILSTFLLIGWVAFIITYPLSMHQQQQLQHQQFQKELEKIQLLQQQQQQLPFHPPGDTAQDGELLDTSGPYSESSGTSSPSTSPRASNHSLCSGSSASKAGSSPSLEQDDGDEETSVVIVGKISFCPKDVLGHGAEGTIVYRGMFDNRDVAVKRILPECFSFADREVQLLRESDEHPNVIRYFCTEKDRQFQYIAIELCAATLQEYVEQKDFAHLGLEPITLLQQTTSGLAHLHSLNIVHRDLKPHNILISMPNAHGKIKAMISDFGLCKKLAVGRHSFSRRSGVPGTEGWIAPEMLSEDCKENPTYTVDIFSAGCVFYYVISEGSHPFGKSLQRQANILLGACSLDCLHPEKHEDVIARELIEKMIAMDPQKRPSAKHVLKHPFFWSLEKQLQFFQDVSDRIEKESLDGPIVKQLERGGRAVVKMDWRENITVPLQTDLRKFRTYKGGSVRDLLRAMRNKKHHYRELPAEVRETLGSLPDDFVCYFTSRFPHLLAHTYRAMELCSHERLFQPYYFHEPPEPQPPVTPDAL
UniProt P11362, whole entry, looked up: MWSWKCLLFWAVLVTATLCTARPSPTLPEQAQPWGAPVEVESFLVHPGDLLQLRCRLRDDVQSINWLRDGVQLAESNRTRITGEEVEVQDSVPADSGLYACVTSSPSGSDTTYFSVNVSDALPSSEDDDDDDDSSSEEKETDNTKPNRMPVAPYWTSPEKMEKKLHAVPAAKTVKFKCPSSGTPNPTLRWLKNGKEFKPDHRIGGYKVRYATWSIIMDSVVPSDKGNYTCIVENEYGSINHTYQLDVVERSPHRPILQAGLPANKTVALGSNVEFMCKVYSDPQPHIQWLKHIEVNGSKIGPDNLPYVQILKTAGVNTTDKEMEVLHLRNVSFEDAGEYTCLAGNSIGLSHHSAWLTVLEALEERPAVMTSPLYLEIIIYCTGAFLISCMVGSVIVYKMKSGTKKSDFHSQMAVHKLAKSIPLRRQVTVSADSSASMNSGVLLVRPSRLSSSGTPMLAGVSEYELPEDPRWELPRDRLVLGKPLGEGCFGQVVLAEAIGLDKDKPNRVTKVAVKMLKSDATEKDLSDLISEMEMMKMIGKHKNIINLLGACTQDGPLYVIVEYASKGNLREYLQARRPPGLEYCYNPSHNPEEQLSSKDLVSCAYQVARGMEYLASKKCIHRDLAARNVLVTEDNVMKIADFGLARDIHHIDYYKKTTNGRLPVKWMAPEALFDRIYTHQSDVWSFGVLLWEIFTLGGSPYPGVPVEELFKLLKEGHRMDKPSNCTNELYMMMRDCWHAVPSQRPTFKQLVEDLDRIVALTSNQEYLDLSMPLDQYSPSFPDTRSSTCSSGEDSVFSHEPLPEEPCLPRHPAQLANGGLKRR
UniProt P22607, whole entry, looked up: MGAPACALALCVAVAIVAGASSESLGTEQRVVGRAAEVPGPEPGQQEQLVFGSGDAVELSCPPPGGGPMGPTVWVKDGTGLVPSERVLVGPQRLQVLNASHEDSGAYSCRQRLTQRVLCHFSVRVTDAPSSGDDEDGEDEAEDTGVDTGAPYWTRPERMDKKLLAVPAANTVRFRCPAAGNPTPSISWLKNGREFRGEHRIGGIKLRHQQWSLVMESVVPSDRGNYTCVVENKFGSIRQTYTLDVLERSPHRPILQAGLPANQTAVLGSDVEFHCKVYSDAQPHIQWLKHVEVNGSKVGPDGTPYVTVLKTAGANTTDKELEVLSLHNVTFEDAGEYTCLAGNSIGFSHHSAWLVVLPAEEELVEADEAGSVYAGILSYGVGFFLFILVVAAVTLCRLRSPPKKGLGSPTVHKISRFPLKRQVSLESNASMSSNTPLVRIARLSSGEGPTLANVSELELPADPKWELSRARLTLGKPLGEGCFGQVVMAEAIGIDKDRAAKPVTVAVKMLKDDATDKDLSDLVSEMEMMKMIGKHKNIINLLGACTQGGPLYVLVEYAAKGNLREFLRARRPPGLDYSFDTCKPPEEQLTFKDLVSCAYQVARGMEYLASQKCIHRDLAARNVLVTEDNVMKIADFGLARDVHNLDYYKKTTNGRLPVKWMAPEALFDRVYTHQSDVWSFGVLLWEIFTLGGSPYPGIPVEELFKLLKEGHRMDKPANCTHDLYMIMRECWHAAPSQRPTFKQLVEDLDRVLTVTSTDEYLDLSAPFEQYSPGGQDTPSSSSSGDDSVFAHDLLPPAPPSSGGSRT
UniProt P36888, whole entry: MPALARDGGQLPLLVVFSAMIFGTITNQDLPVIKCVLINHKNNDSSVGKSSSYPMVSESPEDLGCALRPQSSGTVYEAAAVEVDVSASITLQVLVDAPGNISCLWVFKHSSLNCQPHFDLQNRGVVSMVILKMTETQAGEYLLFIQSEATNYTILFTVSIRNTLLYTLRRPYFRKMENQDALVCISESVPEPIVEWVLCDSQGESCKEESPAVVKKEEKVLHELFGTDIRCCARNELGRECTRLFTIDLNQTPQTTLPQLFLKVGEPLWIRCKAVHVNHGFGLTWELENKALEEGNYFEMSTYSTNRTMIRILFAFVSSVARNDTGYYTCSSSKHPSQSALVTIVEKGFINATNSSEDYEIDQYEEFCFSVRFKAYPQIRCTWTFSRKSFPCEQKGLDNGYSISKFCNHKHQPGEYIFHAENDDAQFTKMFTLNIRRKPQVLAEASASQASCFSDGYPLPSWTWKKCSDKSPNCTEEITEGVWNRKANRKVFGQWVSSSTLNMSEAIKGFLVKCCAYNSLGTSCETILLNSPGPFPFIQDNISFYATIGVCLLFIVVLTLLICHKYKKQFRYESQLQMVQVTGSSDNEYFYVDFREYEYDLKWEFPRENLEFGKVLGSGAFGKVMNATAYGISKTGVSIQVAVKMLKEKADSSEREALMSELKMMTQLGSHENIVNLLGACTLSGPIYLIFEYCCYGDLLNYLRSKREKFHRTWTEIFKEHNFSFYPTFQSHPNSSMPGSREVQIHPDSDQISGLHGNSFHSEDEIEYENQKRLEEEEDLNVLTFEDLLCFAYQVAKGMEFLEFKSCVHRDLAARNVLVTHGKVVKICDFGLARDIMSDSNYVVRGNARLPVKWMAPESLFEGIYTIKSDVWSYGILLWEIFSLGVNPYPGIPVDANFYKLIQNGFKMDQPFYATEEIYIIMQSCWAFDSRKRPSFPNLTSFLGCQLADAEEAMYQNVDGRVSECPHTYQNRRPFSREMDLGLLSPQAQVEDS
UniProt P06241, whole entry, looked up: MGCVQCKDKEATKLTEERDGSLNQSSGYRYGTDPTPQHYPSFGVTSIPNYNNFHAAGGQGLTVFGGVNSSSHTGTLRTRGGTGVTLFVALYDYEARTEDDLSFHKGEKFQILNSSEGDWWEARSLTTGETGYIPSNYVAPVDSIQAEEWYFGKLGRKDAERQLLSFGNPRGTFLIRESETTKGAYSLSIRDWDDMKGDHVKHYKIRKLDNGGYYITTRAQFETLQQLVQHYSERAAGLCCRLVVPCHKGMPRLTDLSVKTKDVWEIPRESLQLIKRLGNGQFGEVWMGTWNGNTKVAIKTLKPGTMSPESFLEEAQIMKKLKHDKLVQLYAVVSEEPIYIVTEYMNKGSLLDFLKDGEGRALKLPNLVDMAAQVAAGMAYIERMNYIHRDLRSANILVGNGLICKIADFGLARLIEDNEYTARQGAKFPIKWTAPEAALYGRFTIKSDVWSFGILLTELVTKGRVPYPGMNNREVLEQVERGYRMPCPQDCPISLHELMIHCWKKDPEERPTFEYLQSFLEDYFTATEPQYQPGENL
UniProt P49840: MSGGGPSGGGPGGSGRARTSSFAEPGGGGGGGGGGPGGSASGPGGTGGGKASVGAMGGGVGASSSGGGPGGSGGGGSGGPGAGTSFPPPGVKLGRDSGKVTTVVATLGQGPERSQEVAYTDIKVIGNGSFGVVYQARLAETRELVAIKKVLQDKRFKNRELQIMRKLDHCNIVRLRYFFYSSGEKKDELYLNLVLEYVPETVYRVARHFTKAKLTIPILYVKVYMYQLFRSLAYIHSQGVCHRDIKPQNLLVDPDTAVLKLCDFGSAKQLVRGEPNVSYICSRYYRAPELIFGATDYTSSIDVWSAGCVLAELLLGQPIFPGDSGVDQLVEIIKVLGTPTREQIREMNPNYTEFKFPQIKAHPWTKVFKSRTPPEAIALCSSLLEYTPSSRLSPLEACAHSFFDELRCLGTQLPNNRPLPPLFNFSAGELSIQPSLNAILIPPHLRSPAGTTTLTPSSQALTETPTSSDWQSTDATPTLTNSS
UniProt P14616: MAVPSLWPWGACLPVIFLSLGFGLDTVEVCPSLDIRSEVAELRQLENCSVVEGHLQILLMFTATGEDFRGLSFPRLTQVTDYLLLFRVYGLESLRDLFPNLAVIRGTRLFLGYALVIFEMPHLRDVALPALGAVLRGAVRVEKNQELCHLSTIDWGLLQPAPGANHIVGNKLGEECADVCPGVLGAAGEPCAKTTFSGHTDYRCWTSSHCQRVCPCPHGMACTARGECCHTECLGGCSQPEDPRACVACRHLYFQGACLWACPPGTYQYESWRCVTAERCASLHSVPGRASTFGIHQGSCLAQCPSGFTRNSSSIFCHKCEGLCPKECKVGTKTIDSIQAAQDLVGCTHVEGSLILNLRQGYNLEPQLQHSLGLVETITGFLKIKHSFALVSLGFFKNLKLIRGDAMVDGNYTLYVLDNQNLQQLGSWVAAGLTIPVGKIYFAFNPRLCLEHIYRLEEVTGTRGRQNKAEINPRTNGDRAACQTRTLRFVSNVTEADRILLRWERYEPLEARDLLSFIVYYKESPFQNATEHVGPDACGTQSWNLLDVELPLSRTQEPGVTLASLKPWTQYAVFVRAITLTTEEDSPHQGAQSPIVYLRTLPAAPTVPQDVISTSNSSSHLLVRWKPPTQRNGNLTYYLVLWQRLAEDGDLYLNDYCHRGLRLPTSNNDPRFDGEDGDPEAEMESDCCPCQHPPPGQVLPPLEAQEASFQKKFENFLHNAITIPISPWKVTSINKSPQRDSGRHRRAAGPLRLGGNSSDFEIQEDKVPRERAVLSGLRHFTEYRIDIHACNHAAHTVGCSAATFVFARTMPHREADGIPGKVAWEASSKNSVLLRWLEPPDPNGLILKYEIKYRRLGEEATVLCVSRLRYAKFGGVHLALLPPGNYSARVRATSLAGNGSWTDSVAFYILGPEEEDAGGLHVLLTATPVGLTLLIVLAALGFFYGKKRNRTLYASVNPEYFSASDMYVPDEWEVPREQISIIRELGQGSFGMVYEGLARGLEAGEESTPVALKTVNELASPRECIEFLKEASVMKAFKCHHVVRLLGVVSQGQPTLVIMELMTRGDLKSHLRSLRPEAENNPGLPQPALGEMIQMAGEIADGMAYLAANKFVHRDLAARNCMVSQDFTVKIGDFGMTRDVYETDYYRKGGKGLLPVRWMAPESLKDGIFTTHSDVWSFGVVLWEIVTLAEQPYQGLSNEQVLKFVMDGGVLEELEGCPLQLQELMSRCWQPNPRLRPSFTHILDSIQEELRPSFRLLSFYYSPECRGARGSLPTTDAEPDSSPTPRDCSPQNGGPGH

What was measured:
Experiment in all cases: kinase-Nluc reporter destabilization hit call (1 = scored as downregulated) (binary); higher = compound decreases kinase abundance
Settings in all cases: K562; 2-18 h
ERN1 = ERN1 (UniProt O75460)
FGFR1 = FGFR1 (UniProt P11362)
FGFR2 = FGFR2 (UniProt P21802)
FGFR3 = FGFR3 (UniProt P22607)
FGR = FGR (UniProt P09769)
FLT3 = FLT3 (UniProt P36888)
FYN = FYN (UniProt P06241)
GSK3A = GSK3A (UniProt P49840)
HER2 = HER2 (UniProt P04626)
INSRR = INSRR (UniProt P14616)

Measured: kinase-Nluc reporter destabilization hit call

O=c1[nH]nc(Sc2ncc([N+](=O)[O-])s2)n1-c1ccc2c(c1)OCCO2 (2.5 µM)
inactive: ERN1 = 0 | FGFR1 = 0 | FGFR2 = 0 | FGFR3 = 0 | FGR 0 | FLT3 = 0 | FYN 0 | GSK3A 0 | HER2 = 0 | INSRR 0

N#C/C(=C\c1ccc[nH]1)c1ccc(Cl)c(Cl)c1 (2.5 µM)
inactive: ERN1 = 0 | FGFR1 = 0 | FGFR2 = 0 | FGFR3 = 0 | FGR 0 | FLT3 = 0 | FYN 0 | GSK3A 0 | HER2 = 0 | INSRR 0

Cn1cc(-c2ccc3nnc(Sc4ccc5nn(C)cc5c4)n3n2)cn1 [c-Met inhibitor 1] (10 µM)
inactive: ERN1 = 0 | FGFR1 = 0 | FGFR2 = 0 | FGFR3 = 0 | FGR 0 | FLT3 = 0 | FYN 0 | GSK3A 0 | HER2 = 0 | INSRR 0

Cc1c(Br)c(Br)c2c3c1nc(N1CCNCC1)n3CCC2 [SEL120-34A (monohydrochloride)] (2.5 µM)
inactive: ERN1 = 0 | FGFR1 = 0 | FGFR2 = 0 | FGFR3 = 0 | FGR 0 | FLT3 = 0 | FYN 0 | GSK3A 0 | HER2 = 0 | INSRR 0

Cc1cccc(Cn2nc(C)c3c(NC(=O)c4csc5c(N)ncnc45)cccc32)n1 (10 µM)
inactive: ERN1 = 0 | FGFR1 = 0 | FGFR2 = 0 | FGFR3 = 0 | FGR 0 | FLT3 = 0 | FYN 0 | GSK3A 0 | HER2 = 0 | INSRR 0

CC(C)(C)S(=O)(=O)c1ccc2nccc(Nc3n[nH]c4ccc(F)cc34)c2c1 (10 µM)
inactive: ERN1 = 0 | FGFR1 = 0 | FGFR2 = 0 | FGFR3 = 0 | FGR 0 | FLT3 = 0 | FYN 0 | GSK3A 0 | HER2 = 0 | INSRR 0

CNC(=O)c1c(C)oc2cc(Oc3ncnc4cc(OC)c(OC)cc34)ccc12 [Fruquintinib] (10 µM)
inactive: ERN1 = 0 | FGFR1 = 0 | FGFR2 = 0 | FGFR3 = 0 | FGR 0 | FLT3 = 0 | FYN 0 | GSK3A 0 | HER2 = 0 | INSRR 0

C=C[C@H]1[C@H](O[C@@H]2O[C@H](CO)[C@@H](O)[C@H](O)[C@H]2O)OC=C(C(=O)OC)[C@H]1CCOC(=O)c1cc(O)c(O)c(O)c1 [Cornuside] (10 µM)
inactive: ERN1 = 0 | FGFR1 = 0 | FGFR2 = 0 | FGFR3 = 0 | FGR 0 | FLT3 = 0 | FYN 0 | GSK3A 0 | HER2 = 0 | INSRR 0

C=CC(=O)N1CCC[C@@H](n2c(=O)n(-c3ccc(Oc4ccccc4)cc3)c3c(N)nccc32)C1 [Tolebrutinib] (10 µM)
inactive: ERN1 = 0 | FGFR1 = 0 | FGFR2 = 0 | FGFR3 = 0 | FGR 0 | FLT3 = 0 | FYN 0 | GSK3A 0 | HER2 = 0 | INSRR 0

C[C@@H]1CN(CC(=O)Nc2ccc3c(c2)Cc2cccc(-c4cc(=O)cc(N5CCOCC5)o4)c2S3)C[C@H](C)O1 (2.5 µM)
inactive: ERN1 = 0 | FGFR1 = 0 | FGFR2 = 0 | FGFR3 = 0 | FGR 0 | FLT3 = 0 | FYN 0 | GSK3A 0 | HER2 = 0 | INSRR 0

CCOC(=O)C1=C[C@]2(CC)CCCN3CCc4c(n1c1ccccc41)[C@@H]32 [Vinpocetine] (10 µM)
inactive: ERN1 = 0 | FGFR1 = 0 | FGFR2 = 0 | FGFR3 = 0 | FGR 0 | FLT3 = 0 | FYN 0 | GSK3A 0 | HER2 = 0 | INSRR 0

C[C@@H]1CC[C@]2(C(=O)O)CC[C@]3(C)C(=CC[C@@H]4[C@@]5(C)CC[C@H](O)[C@@](C)(CO)[C@@H]5CC[C@]43C)[C@@H]2[C@]1(C)O [Rotundic acid] (10 µM)
inactive: ERN1 = 0 | FGFR1 = 0 | FGFR2 = 0 | FGFR3 = 0 | FGR 0 | FLT3 = 0 | FYN 0 | GSK3A 0 | HER2 = 0 | INSRR 0

O=C1NCCSc2c1sc1ccc(O)cc21 (2.5 µM)
inactive: ERN1 = 0 | FGFR1 = 0 | FGFR2 = 0 | FGFR3 = 0 | FGR 0 | FLT3 = 0 | FYN 0 | GSK3A 0 | HER2 = 0 | INSRR 0

CC[C@H](C)[C@H](NC(=O)[C@H](CCCCN)NC(=O)[C@H](CC(C)C)NC(=O)[C@@H]1CCCN1C(=O)[C@H](CCC(=O)O)NC(=O)[C@H](Cc1ccc(O)cc1)NC(=O)[C@@H](NC(=O)[C@H](CO)NC(=O)CNC(=O)[C@H](CO)NC(=O)[C@H](CCCN=C(N)N)NC(=O)[C@H](CCCCN)NC(=O)[C@@H](NC(=O)[C@@H](N)CCCN=C(N)N)[C@@H](C)O)C(C)C)C(=O)O [Malantide] (10 µM)
inactive: ERN1 = 0 | FGFR1 = 0 | FGFR2 = 0 | FGFR3 = 0 | FGR 0 | FLT3 = 0 | FYN 0 | GSK3A 0 | HER2 = 0 | INSRR 0

C[C@]1(O)C[C@@](N)(c2ccc(-c3nc4n(c3-c3ccccc3)COc3ccncc3-4)cc2)C1 [TAS-117 (hydrochloride)] (10 µM)
inactive: ERN1 = 0 | FGFR1 = 0 | FGFR2 = 0 | FGFR3 = 0 | FGR 0 | FLT3 = 0 | FYN 0 | GSK3A 0 | HER2 = 0 | INSRR 0

COc1ncc2cc(C(=O)Nc3cc(C(=O)NCc4cccc(Cl)c4)ccc3Cl)c(=O)[nH]c2n1 (2.5 µM)
inactive: ERN1 = 0 | FGFR1 = 0 | FGFR2 = 0 | FGFR3 = 0 | FGR 0 | FLT3 = 0 | FYN 0 | GSK3A 0 | HER2 = 0 | INSRR 0

Cn1c(=O)c(Oc2ccc(F)cc2F)cc2cnc(NC(CCO)CCO)nc21 [Pamapimod] (10 µM)
inactive: ERN1 = 0 | FGFR1 = 0 | FGFR2 = 0 | FGFR3 = 0 | FGR 0 | FLT3 = 0 | FYN 0 | GSK3A 0 | HER2 = 0 | INSRR 0

COc1cc2nccc(Oc3ccc(NC(=O)Nc4ccc(F)cc4F)c(F)c3)c2cc1OC (10 µM)
inactive: ERN1 = 0 | FGFR1 = 0 | FGFR2 = 0 | FGFR3 = 0 | FGR 0 | FLT3 = 0 | FYN 0 | GSK3A 0 | HER2 = 0 | INSRR 0

CS(=O)(=O)N1CCc2c(-c3cnc(N)nc3)nc(N3CCOCC3)nc21 (10 µM)
inactive: ERN1 = 0 | FGFR1 = 0 | FGFR2 = 0 | FGFR3 = 0 | FGR 0 | FLT3 = 0 | FYN 0 | GSK3A 0 | HER2 = 0 | INSRR 0

COc1ccc(F)cc1C(=O)NCc1ccc(-c2nn([C@@H](C)C(F)(F)F)c(N)c2C(N)=O)cc1 [Pirtobrutinib] (10 µM)
inactive: ERN1 = 0 | FGFR1 = 0 | FGFR2 = 0 | FGFR3 = 0 | FGR 0 | FLT3 = 0 | FYN 0 | GSK3A 0 | HER2 = 0 | INSRR 0

Clc1ccc(Nc2cccc(-c3cn[nH]c3)c2)cc1 (10 µM)
inactive: ERN1 = 0 | FGFR1 = 0 | FGFR2 = 0 | FGFR3 = 0 | FGR 0 | FLT3 = 0 | FYN 0 | GSK3A 0 | HER2 = 0 | INSRR 0

C[C@@]12CCc3occc3[C@H]1CC[C@@]13C[C@@H](CC[C@H]12)[C@@](O)(CO)C3 [Cafestol] (10 µM)
inactive: ERN1 = 0 | FGFR1 = 0 | FGFR2 = 0 | FGFR3 = 0 | FGR 0 | FLT3 = 0 | FYN 0 | GSK3A 0 | HER2 = 0 | INSRR 0

3 compounds out of the list, arranged by length of the SMILES, smallest number first.
CS(=O)(=O)N1CCc2c(-c3cnc(N)nc3)nc(N3CCOCC3)nc21 (10 µM)
inactive: ERN1 = 0 | FGFR1 = 0 | FGFR2 = 0 | FGFR3 = 0 | FGR 0 | FLT3 = 0 | FYN 0 | GSK3A 0 | HER2 = 0 | INSRR 0

COc1cc2nccc(Oc3ccc(NC(=O)Nc4ccc(F)cc4F)c(F)c3)c2cc1OC (10 µM)
inactive: ERN1 = 0 | FGFR1 = 0 | FGFR2 = 0 | FGFR3 = 0 | FGR 0 | FLT3 = 0 | FYN 0 | GSK3A 0 | HER2 = 0 | INSRR 0

COc1ccc(F)cc1C(=O)NCc1ccc(-c2nn([C@@H](C)C(F)(F)F)c(N)c2C(N)=O)cc1 [Pirtobrutinib] (10 µM)
inactive: ERN1 = 0 | FGFR1 = 0 | FGFR2 = 0 | FGFR3 = 0 | FGR 0 | FLT3 = 0 | FYN 0 | GSK3A 0 | HER2 = 0 | INSRR 0

(list continues)

O=C(NCc1cccc(O)c1)c1cc2cc(F)ccc2[nH]1 (10 µM)
inactive: ERN1 = 0 | FGFR1 = 0 | FGFR2 = 0 | FGFR3 = 0 | FGR 0 | FLT3 = 0 | FYN 0 | GSK3A 0 | HER2 = 0 | INSRR 0

CNS(=O)(=O)C[C@H]1CC[C@H](N(C)c2[nH]cnc3nccc2-3)CC1 [Oclacitinib (maleate)] (10 µM)
inactive: ERN1 = 0 | FGFR1 = 0 | FGFR2 = 0 | FGFR3 = 0 | FGR 0 | FLT3 = 0 | FYN 0 | GSK3A 0 | HER2 = 0 | INSRR 0

O=c1cc(N2CCOCC2)oc2c1ccc1ccccc12 (2 µM)
inactive: ERN1 = 0 | FGFR1 = 0 | FGFR2 = 0 | FGFR3 = 0 | FGR 0 | FLT3 = 0 | FYN 0 | GSK3A 0 | HER2 = 0 | INSRR 0

Cc1ccc(CNC(=O)N2CCC[C@]3(CCN(Cc4ccc(Cl)c(Cl)c4)C3)C2)cc1 (10 µM)
inactive: ERN1 = 0 | FGFR1 = 0 | FGFR2 = 0 | FGFR3 = 0 | FGR 0 | FLT3 = 0 | FYN 0 | GSK3A 0 | HER2 = 0 | INSRR 0

Cn1cc(-c2cn3nccc3c(-c3cnn([C@]4(CC#N)C[C@@H](C#N)C4)c3)n2)cn1 (10 µM)
inactive: ERN1 = 0 | FGFR1 = 0 | FGFR2 = 0 | FGFR3 = 0 | FGR 0 | FLT3 = 0 | FYN 0 | GSK3A 0 | HER2 = 0 | INSRR 0

COC(=O)/C=C/c1ccc(O)c(OC)c1 [Ferulic acid methyl ester] (10 µM)
inactive: ERN1 = 0 | FGFR1 = 0 | FGFR2 = 0 | FGFR3 = 0 | FGR 0 | FLT3 = 0 | FYN 0 | GSK3A 0 | HER2 = 0 | INSRR 0
